# PubChem BioAssay AID1259286, Sanger Institute, 2017
# Screen: 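Kinase knock-downs that reduce colorectal cancer cell viability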 (primary screen)
# Cell system: NCI-H630 human colorectal cancer cells
# Knock-down reagent: siRNA pool against human genes
# Challenge: anchor drugs BYL719 at 1 µM, cetuximab at 5 µg/ml or trametinib at 10 nM, or DMSO vehicle alone; exposure time not given
# Measured: 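Viability relative to non-targeting pool wells, averaged over replicates, with robust z-score for knock-down alone and a synergy score for each anchor drug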
# Scale: viability z-score, knock-down alone: higher = more viable cells, weaker knock-down effect; viability vs control, knock-down alone: higher = more viable cells; synergy score with trametinib: higher = stronger synergistic killing with trametinib; synergy score with BYL719: higher = stronger synergistic killing with BYL719; synergy score with cetuximab: higher = stronger synergistic killing with cetuximab
# Rule for the call: 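Essential call: robust z-score of viability with siRNA alone lower than -3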
# Meaning of the calls: active = essential when knocked down alone; inactive = not essential alone
# In all, the deposit lists 794 reagents; shown is a random part of them. Over the whole deposit, 17 (2.1%) are marked active. 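Calls use knock-down alone only; synergy above 0.15 marked separately; viability seems capped at control level; exposure time not given.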 No sequences are given here. Not given: the amount of reagent, the time to read-out.
gene knocked down,"viability z-score, knock-down alone","viability vs control, knock-down alone (fraction of control)",synergy score with trametinib,synergy score with BYL719,synergy score with cetuximab,activity call
SIK2,0.464,1,-0.0479,-0.0277,-0.0116,inactive
CDK7,0.303,0.994,-0.0537,0.043,0.022,inactive
TAB1,0.399,0.998,-0.0502,-0.0323,-0.0334,inactive
CDC42BPG,0.0349,0.984,-0.0633,-0.0691,0.0577,inactive
PIP4K2C,0.464,1,-0.0479,0.00899,0.0933,inactive
TRIM27,0.464,1,0.0224,-0.0814,-0.0584,inactive
GRK4,0.464,1,-0.0479,-0.0719,0.024,inactive
RPS6KA1,-0.361,0.969,-0.00154,-0.057,0.0462,inactive
DTYMK,0.464,1,-0.0479,0.0033,0.0177,inactive
CDKN1B,0.366,0.996,0.00713,-0.0363,-0.0889,inactive
SGK2,-0.506,0.963,-0.0828,-0.0299,0.0209,inactive
AK3,0.464,1,-0.0479,-0.00345,0.0362,inactive
FGFR4,0.464,1,-0.0357,-0.0265,0.0616,inactive
TK2,0.464,1,-0.0479,-0.0814,0.037,inactive
PIK3R1,0.289,0.993,-0.0436,-0.0872,-0.0465,inactive
EPHA4,-0.808,0.952,-0.0492,0.076,-0.0632,inactive
NTRK1,0.464,1,-0.0286,-0.0811,0.0493,inactive
MPP2,0.162,0.989,-0.00165,0.0451,-0.00315,inactive
PIM3,0.464,1,-0.0281,0.0302,0.0587,inactive
IGF2R,0.464,1,-0.0479,-0.0814,-0.068,inactive
PHKG1,-2.43,0.89,-0.152,-0.108,-0.17,inactive
STK11,-0.664,0.957,-0.0414,-0.052,0.0143,inactive
FRK,0.464,1,-0.0479,0.101,-0.114,inactive
DMPK,0.464,1,-0.0479,-0.0814,0.00913,inactive
PAK3,0.464,1,0.00894,0.0647,0.069,inactive
CDK1,-0.396,0.967,-0.0788,0.00522,-0.0418,inactive
PTK7,-1.1,0.941,0.0206,0.0449,0.0756,inactive
PTK2,0.464,1,-0.0479,-0.0814,-0.0476,inactive
CAMK2N1,0.464,1,-0.0479,-0.00975,0.0898,inactive
CDKN2D,0.464,1,0.0338,0.173,0.192,inactive
TWF2,0.464,1,-0.0479,-0.00625,-0.0165,inactive
ULK4,-0.618,0.959,-0.0764,-0.113,0.14,inactive
CALM1,0.464,1,-0.0479,-0.0128,0.11,inactive
PRPS1L1,0.41,0.998,-0.0246,-0.042,-0.0374,inactive
MAP3K10,0.464,1,-0.0479,-0.0814,-0.121,inactive
STK4,0.464,1,-0.0158,0.0119,0.0603,inactive
CDK9,0.464,1,-0.0401,0.0252,0.036,inactive
HIPK1,0.464,1,-0.0431,-0.0814,-0.00132,inactive
PLK4,-2.26,0.897,-0.0869,-0.123,0.0477,inactive
CAMK1G,-0.479,0.964,-0.0818,-0.114,0.0193,inactive
CSNK1E,-0.382,0.968,-0.0783,-0.0554,0.0431,inactive
CIT,0.464,1,-0.0479,0.0896,0.14,inactive
BTK,0.464,1,-0.0479,-0.0812,0.0342,inactive
DNMT3A,0.168,0.989,-0.0562,-0.0139,-0.0167,inactive
ITSN1,0.464,1,-0.0227,-0.0261,0.0973,inactive
FXR1,0.464,1,-0.0479,-0.0577,0.00993,inactive
NAGK,-1.2,0.937,-0.108,0.0237,0.109,inactive
CAMKK2,0.464,1,0.0597,-0.0814,-0.0914,inactive
PNKP,0.464,1,-0.0479,-0.0814,-0.0441,inactive
CDKN2B,-1.09,0.941,-0.0372,-0.135,-0.126,inactive

Taken from above.
For “activity call”, PIP4K2C shows inactive
CDC42BPG, viability vs control, knock-down alone (fraction of control) → 0.984
Under “viability vs control, knock-down alone (fraction of control)”, CDKN2B reads 0.941
For “synergy score with cetuximab”, CDKN1B shows -0.0889
Result for RPS6KA1 under “viability z-score, knock-down alone”: -0.361
